Test results reported in patent US20260266848A1, “COMPOSITIONS AND METHODS FOR DIAGNOSING AND TREATING DYSTONIA” (Duke University, priority 2023, published 2026).

B1: EHD4 (protein, UniProt Q9H223 1-541, looked up)
EH domain-containing protein 4: MFSWMGRQAGGRERAGGADAVQTVTGGLRSLYLRKVLPLEEAYRFHEFHSPALEDADFENKPMILLVGQYSTGKTTFIRYLLEQDFPGMRIGPEPTTDSFIAVMYGETEGSTPGNALVVDPKKPFRKLSRFGNAFLNRFMCSQLPNQVLKSISVIDSPGILSGEKQRISRGYDFCQVLQWFAERVDRIILLFDAHKLDISDEFSEAIKAFRGQDDKIRVVLNKADQVDTQQLMRVYGALMWSLGKVINTPEVLRVYIGSFWAQPLQNTDNRRLFEAEAQDLFRDIQSLPQKAAVRKLNDLIKRARLAKVHAYIISYLKKEMPSVFGKENKKRELISRLPEIYIQLQREYQISAGDFPEVKAMQEQLENYDFTKFHSLKPKLIEAVDNMLSNKISPLMNLISQEETSTPTQLVQGGAFDGTTEGPFNQGYGEGAKEGADEEEWVVAKDKPVYDELFYTLSPINGKISGVNAKKEMVTSKLPNSVLGKIWKLADCDCDGMLDEEEFALAKHLIKIKLDGYELPSSLPPHLVPPSHRKSLPKAD
B2: WFDC12 (protein, UniProt Q8WWY7 24-111, looked up)
WAP four-disulfide core …: VKEGIEKAGVCPADNVRCFKSDPPQCHTDQDCLGERKCCYLHCGFKCVIPVKELEEGGNKDEDVSRPYPEPGWEAKCPGSSSTRCPQK
B3: PRPSAP2 (protein, UniProt O60256 1-369, looked up)
Phosphoribosyl pyrophosphate …: MFCVTPPELETKMNITKGGLVLFSANSNSSCMELSKKIAERLGVEMGKVQVYQEPNRETRVQIQESVRGKDVFIIQTVSKDVNTTIMELLIMVYACKTSCAKSIIGVIPYFPYSKQCKMRKRGSIVSKLLASMMCKAGLTHLITMDLHQKEIQGFFNIPVDNLRASPFLLQYIQEEIPDYRNAVIVAKSPASAKRAQSFAERLRLGIAVIHGEAQDAESDLVDGRHSPPMVRSVAAIHPSLEIPMLIPKEKPPITVVGDVGGRIAIIVDDIIDDVDSFLAAAETLKERGAYKIFVMATHGLLSSDAPRRIEESAIDEVVVTNTIPHEVQKLQCPKIKTVDISMILSEAIRRIHNGESMSYLFRNIGLDD
B4: LRRC59 (protein, UniProt Q96AG4 1-307, looked up)
Leucine-rich …: MTKAGSKGGNLRDKLDGNELDLSLSDLNEVPVKELAALPKATILDLSCNKLTTLPSDFCGLTHLVKLDLSKNKLQQLPADFGRLVNLQHLDLLNNKLVTLPVSFAQLKNLKWLDLKDNPLDPVLAKVAGDCLDEKQCKQCANKVLQHMKAVQADQERERQRRLEVEREAEKKREAKQRAKEAQERELRKREKAEEKERRRKEYDALKAAKREQEKKPKKEANQAPKSKSGSRPRKPPPRKHTRSWAVLKLLLLLLLFGVAGGLVACRVTELQQQPLCTSVNTIYDNAVQGLRRHEILQWVLQTDSQQ
B5: PITPNB (protein, UniProt P48739 1-271, looked up)
Phosphatidylinositol transfer …: MVLIKEFRVVLPCSVQEYQVGQLYSVAEASKNETGGGEGIEVLKNEPYEKDGEKGQYTHKIYHLKSKVPAFVRMIAPEGSLVFHEKAWNAYPYCRTIVTNEYMKDDFFIKIETWHKPDLGTLENVHGLDPNTWKTVEIVHIDIADRSQVEPADYKADEDPALFQSVKTKRGPLGPNWKKELANSPDCPQMCAYKLVTIKFKWWGLQSKVENFIQKQEKRIFTNFHRQLFCWIDKWIDLTMEDIRRMEDETQKELETMRKRGSVRGTSAADV
B6: SLC2A1 (protein, UniProt P11166 1-492, looked up)
Solute carrier family 2, …: MEPSSKKLTGRLMLAVGGAVLGSLQFGYNTGVINAPQKVIEEFYNQTWVHRYGESILPTTLTTLWSLSVAIFSVGGMIGSFSVGLFVNRFGRRNSMLMMNLLAFVSAVLMGFSKLGKSFEMLILGRFIIGVYCGLTTGFVPMYVGEVSPTALRGALGTLHQLGIVVGILIAQVFGLDSIMGNKDLWPLLLSIIFIPALLQCIVLPFCPESPRFLLINRNEENRAKSVLKKLRGTADVTHDLQEMKEESRQMMREKKVTILELFRSPAYRQPILIAVVLQLSQQLSGINAVFYYSTSIFEKAGVQQPVYATIGSGIVNTAFTVVSLFVVERAGRRTLHLIGLAGMAGCAILMTIALALLEQLPWMSYLSIVAIFGFVAFFEVGPGPIPWFIVAELFSQGPRPAAIAVAGFSNWTSNFIVGMCFQYVEQLCGPYVFIIFTVLLVLFFIFTYFKVPETKGRTFDEIASGFRQGGASQSDKTPEELFHPLGADSQV
B7: PLEK (protein, UniProt P08567 1-350, looked up)
Pleckstrin: MEPKRIREGYLVKKGSVFNTWKPMWVVLLEDGIEFYKKKSDNSPKGMIPLKGSTLTSPCQDFGKRMFVFKITTTKQQDHFFQAAFLEERDAWVRDIKKAIKCIEGGQKFARKSTRRSIRLPETIDLGALYLSMKDTEKGIKELNLEKDKKIFNHCFTGNCVIDWLVSNQSVRNRQEGLMIASSLLNEGYLQPAGDMSKSAVDGTAENPFLDNPDAFYYFPDSGFFCEENSSDDDVILKEEFRGVIIKQGCLLKQGHRRKNWKVRKFILREDPAYLHYYDPAGAEDPLGAIHLRGCVVTSVESNSNGRKSEEENLFEIITADEVHYFLQAATPKERTEWIRAIQMASRTGK
B8: LORICRIN (protein, UniProt P23490 1-312, looked up)
Loricrin: MSYQKKQPTPQPPVDCVKTSGGGGGGGGSGGGGCGFFGGGGSGGGSSGSGCGYSGGGGYSGGGCGGGSSGGGGGGGIGGCGGGSGGSVKYSGGGGSSGGGSGCFSSGGGGSGCFSSGGGGSSGGGSGCFSSGGGGSSGGGSGCFSSGGGGFSGQAVQCQSYGGVSSGGSSGGGSGCFSSGGGGGSVCGYSGGGSGCGGGSSGGSGSGYVSSQQVTQTSCAPQPSYGGGSSGGGGSGGSGCFSSGGGGGSSGCGGGSSGIGSGCIISGGGSVCGGGSSGGGGGGSSVGGSGSGKGVPICHQTQQKQAPTWPSK
B9: LMNB2 (protein, UniProt Q03252 1-617, looked up)
Lamin-B2: MSPPSPGRRREQRRPRAAATMATPLPGRAGGPATPLSPTRLSRLQEKEELRELNDRLAHYIDRVRALELENDRLLLKISEKEEVTTREVSGIKALYESELADARRVLDETARERARLQIEIGKLRAELDEVNKSAKKREGELTVAQGRVKDLESLFHRSEVELAAALSDKRGLESDVAELRAQLAKAEDGHAVAKKQLEKETLMRVDLENRCQSLQEELDFRKSVFEEEVRETRRRHERRLVEVDSSRQQEYDFKMAQALEELRSQHDEQVRLYKLELEQTYQAKLDSAKLSSDQNDKAASAAREELKEARMRLESLSYQLSGLQKQASAAEDRIRELEEAMAGERDKFRKMLDAKEQEMTEMRDVMQQQLAEYQELLDVKLALDMEINAYRKLLEGEEERLKLSPSPSSRVTVSRATSSSSGSLSATGRLGRSKRKRLEVEEPLGSGPSVLGTGTGGSGGFHLAQQASASGSVSIEEIDLEGKFVQLKNNSDKDQSLGNWRIKRQVLEGEEIAYKFTPKYILRAGQMVTVWAAGAGVAHSPPSTLVWKGQSSWGTGESFRTVLVNADGEEVAMRTVKKSSVMRENENGEEEEEEAEFGEEDLFHQQGDPRTTSRGC
B10: LYPLA1 (protein, UniProt O75608 1-230, looked up)
Acyl-protein thioesterase 1: MCGNNMSTPLPAIVPAARKATAAVIFLHGLGDTGHGWAEAFAGIRSSHIKYICPHAPVRPVTLNMNVAMPSWFDIIGLSPDSQEDESGIKQAAENIKALIDQEVKNGIPSNRIILGGFSQGGALSLYTALTTQQKLAGVTALSCWLPLRASFPQGPIGGANRDISILQCHGDCDPLVPLMFGSLTVEKLKTLVNPANVTFKTYEGMMHSSCQQEMMDVKQFIDKLLPPID
B11: FAM131C (protein, UniProt Q96AQ9 1-280, looked up)
Protein FAM131C: MGSCVSRDLFTSAHKNCPMPQGADPLNPDLPSGRTPTVAPDCVIGKDKQMDFCWDPWQRCFQTTNGYLSDSRSRPGNYNVAALATSSLVGVVQSIKDHITKPTAMARGRVAHLIEWKGWSAQPAGWELSPAEDEHYCCLPDELREARFAAGVAEQFAITEATLSAWSSLDEEELHPENSPQGIVQLQDLESIYLQDSLPSGPSQDDSLQAFSSPSPSPDSCPSPEEPPSTAGIPQPPSPELQHRRRLPGAQGPEGGTHPPGSLPSMDSGSLWEEDEVFYN

Test system: DYT1 patient plasma derived EVs
Test: Plasma-derived EV proteomics (ExoQuick ULTRA, DIA LC/MS/MS), DYT1 vs Healthy Controls
Parameters: species or system human
Details: DYT1 patients as compared to healthy controls
Method: Data was obtained for extracellular vesicles using previously acquired samples. The ExoQuick® ULTRA EV Isolation System was used to fractionate and enrich EVs from plasma. Isolated plasma EV samples were then submitted to proteomic analysis by the Duke Proteomics and Metabolomics Core Facility (DPMCF). At the DPMCF, quantitative (LC/MS/MS) was performed on 500 ng of each sample, using an EvoSep One UPLC system coupled to a Thermo Orbitrap Astral high-resolution accurate mass tandem mass spectrometer (Thermo). Briefly, the sample was eluted directly from an Evotip which was subjected to a low organic wash and then subjected to an analytical separation using a 1.7 μm EvoSep 150 um ID×15 cm endurance (EveoSep) column running an SPD30 gradient from approximately 5 to 30% acetonitrile with 0.1% formic acid with a column temperature of 50 C. Data collection on the Orbitrap Astral mass spectrometer was performed in a data-independent acquisition (DIA) mode of acquisition with a r=240,000 (@m/z 200) full MS scan from m/z 380-980 with a target AGC value of 4e5 ions. Fixed DIA, windows of 4 m/z from m/z 380 to 980 DIA MS/MS scans were acquired in the Astral with a target AGC value of 5e4 and a max fill time of 6 ms. HCD collision energy setting of 27% was used for all MS2 scans.

Molecule | Log2FC
B1 | −2.1126
B2 | −1.5491

Same assay, conditions: Hs. Plasma EVs (DYT1/WT)

Molecule | Directionality
B3 | DOWN
B1 | DOWN
B4 | DOWN
B5 | DOWN

Same assay, conditions: Hs. Plasma EVs (DYT1/WT); protein level, human patient derived EVs by genotype

Molecule | Log2_FC
B3 | -1.105
B1 | -2.113
B4 | -0.8011
B5 | -1.064
B6 | 1.076

Same assay, conditions: directionality of protein change, human plasma derived EVs, DYT1 vs WT(HC)

Molecule | Hs. Plasma EVs (DYT1/WT)
B3 | DOWN
B1 | DOWN
B4 | DOWN
B5 | DOWN

Same assay, conditions: protein abundance, DYT1 patients

Molecule | Mean DYT1
B7 | 6.963
B3 | 2.595
B1 | 8.194
B4 | 1.966
B8 | 6.295
B9 | 3.328
B5 | 4.149
B2 | 4.356
B6 | 7.183
B10 | 8.175
B11 | 4.777

Same assay, conditions: protein abundance, healthy controls (HC)

Molecule | Mean HC
B7 | 5.76
B3 | 3.70
B1 | 10.31
B4 | 2.77
B8 | 7.19
B9 | 4.13
B5 | 5.21
B2 | 5.90
B6 | 6.11
B10 | 9.55
B11 | 2.56
